Values quoted from earlier work as cited in patent US7713954B2, “Compositions and methods for treating cognitive disorders” (Roche Palo Alto LLC, priority 2004, dated 2010).
At least one structure is not confirmed: it was looked up by name or label, or the drawing left a doubt.

Details: cited from earlier work

## CN1CCN(C2=Nc3cc(Cl)ccc3Nc3ccccc32)CC1 [Clozapine]
Wolff and Leander 2003
  effect on memory: no effect
Several studies (Addy and Levin 2002; Skarsfeldt 1996; Rosengarten and Quartermain 2002; Terry et al. 2002)
  effect on memory in animal cognition models: impairment or no effect on memory
